Laboratory results: PMC10264389
No constants are given. Whether binding was seen depends on the method and setting. In cells and extracts the contact can be indirect. Here binding means that the protein was enriched with, or labelled near, the bait; the list need not be complete. A no says only that the protein was not detected with the bait. For some of these results: Tags and fused reporters may be left off the sequences shown.

Sequences of proteins named here, by UniProt entry; tags and fusion partners are left off. A change or cut given only in a name is not applied to a line headed by its entry.
UniProt Q96JJ7: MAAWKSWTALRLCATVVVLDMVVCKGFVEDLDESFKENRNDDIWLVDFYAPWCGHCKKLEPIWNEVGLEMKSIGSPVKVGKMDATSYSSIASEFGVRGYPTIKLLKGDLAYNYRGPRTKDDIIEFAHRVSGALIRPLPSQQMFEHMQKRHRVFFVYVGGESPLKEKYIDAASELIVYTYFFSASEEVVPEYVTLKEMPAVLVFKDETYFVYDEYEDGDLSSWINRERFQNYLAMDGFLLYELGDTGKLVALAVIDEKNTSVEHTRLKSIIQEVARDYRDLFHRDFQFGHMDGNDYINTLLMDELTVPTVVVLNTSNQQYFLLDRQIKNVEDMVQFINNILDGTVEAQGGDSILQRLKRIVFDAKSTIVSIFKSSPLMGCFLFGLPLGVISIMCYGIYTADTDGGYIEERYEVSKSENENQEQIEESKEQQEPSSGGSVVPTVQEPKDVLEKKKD
UniProt Q9H1E5: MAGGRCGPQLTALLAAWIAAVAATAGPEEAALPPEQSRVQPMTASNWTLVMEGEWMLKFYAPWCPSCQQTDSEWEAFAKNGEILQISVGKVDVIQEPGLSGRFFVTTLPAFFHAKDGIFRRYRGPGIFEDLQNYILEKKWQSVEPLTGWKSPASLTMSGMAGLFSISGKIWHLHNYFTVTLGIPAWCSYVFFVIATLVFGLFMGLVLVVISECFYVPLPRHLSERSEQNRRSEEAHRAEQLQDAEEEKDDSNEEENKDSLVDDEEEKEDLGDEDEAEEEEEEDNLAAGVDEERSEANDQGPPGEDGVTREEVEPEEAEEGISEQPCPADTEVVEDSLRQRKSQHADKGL
UniProt O94901: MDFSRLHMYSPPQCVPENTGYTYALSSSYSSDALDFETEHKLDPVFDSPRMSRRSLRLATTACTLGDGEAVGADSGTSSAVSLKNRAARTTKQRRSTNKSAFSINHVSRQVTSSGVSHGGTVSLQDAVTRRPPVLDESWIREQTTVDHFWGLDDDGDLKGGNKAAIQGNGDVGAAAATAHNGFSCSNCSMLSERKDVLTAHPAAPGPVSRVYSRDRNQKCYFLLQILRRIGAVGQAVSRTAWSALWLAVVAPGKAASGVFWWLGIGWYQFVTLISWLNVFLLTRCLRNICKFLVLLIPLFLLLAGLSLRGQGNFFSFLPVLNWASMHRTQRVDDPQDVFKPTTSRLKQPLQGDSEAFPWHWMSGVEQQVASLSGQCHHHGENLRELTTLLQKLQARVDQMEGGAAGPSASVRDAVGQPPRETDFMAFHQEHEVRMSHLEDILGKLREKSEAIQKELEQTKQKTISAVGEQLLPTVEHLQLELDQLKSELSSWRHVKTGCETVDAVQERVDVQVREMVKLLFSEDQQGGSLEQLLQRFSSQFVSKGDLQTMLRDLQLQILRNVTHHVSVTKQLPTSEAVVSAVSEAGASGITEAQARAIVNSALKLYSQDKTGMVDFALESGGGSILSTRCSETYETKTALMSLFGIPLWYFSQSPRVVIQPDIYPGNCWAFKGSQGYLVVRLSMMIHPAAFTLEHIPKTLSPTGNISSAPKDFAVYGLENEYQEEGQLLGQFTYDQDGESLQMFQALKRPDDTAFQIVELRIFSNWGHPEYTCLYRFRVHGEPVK

Tests used:
Assay in all cases: affinity purification with mass spectrometry; V5-tagged trapping TMX proteins expressed in HEK293; lysis in RIPA buffer with 20 mM NEM; post-nuclear supernatant double immunoprecipitated with anti-V5 beads; non-reduced and reduced samples run on gels, lanes of the trapping variants cut from the loading point to the 50 kDa marker; LC-MS/MS of proteins trapped in mixed disulfides
TMX3_(C56A)-V5 = TMX3_(C56A)-V5 (UniProt Q96JJ7)
TMX4_(C67A)-V5 = TMX4_(C67A)-V5 (UniProt Q9H1E5)
TMX5-V5 = molecular target: T1, TMX5-V5 (UniProt Q96J42)
T1 sequence: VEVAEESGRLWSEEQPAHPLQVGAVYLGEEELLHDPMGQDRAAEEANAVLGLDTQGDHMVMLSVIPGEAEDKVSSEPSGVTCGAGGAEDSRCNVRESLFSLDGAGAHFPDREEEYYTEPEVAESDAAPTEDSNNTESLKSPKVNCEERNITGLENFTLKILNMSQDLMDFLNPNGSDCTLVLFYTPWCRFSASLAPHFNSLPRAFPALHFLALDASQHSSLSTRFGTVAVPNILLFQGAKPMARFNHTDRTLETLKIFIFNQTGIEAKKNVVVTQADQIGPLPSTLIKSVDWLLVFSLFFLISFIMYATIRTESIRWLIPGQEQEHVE

binding (TMX3_(C56A)-V5)	binding (TMX4_(C67A)-V5)	binding (TMX5-V5)	Substance
no binding	binds	no binding	NESPRIN2 (SYNE2) (from UniProt Q8WXH0 1-6885)
no binding	binds	no binding	NESPRIN1 (from UniProt Q8NF91 1-8797)
	no binding		SUN1 (endogenous) (from UniProt O94901 1-785)
